Assay results: patent US20260209334A1
Changes are numbered by the printed parent chain. Results are given in words; binding and its absence hold for the method and conditions named. For some assays here: In cells and extracts the contact can be indirect. Some binding calls cover weakened binding; strength is not graded here. For some assays here: Sequences can lack the tags named with a protein. Each block holds one binder with its values, some of them ahead of it.

Chains of the proteins cited; added tags and fusions are not shown. Lines headed by an entry give the natural chain unless they say otherwise; changes in a name come on top.
UniProt Q16552: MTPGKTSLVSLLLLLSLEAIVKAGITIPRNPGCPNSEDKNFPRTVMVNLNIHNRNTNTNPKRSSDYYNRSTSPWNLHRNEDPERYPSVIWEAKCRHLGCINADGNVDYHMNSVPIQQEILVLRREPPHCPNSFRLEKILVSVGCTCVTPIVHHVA

Legend:
[1] = molecular target: human IL-17A with C-terminal Avi-tag, biotinylated, immobilized on BLI sensors (human) (UniProt Q16552); experiment: BLI on IL-17A, 50 nM VHH, untreated or after 10 min at 95 °C
[2] = molecular target: human IL-17A with C-terminal Avi-tag, biotinylated, immobilized on BLI sensors (human) (UniProt Q16552); experiment: BLI, IL-17A on the sensor, VHH at 50 nM, kept at room temperature (Control) or heated 10 min at 95 °C
[3] = molecular target: human IL-17A with C-terminal Avi-tag, biotinylated, immobilized on BLI sensors (human) (UniProt Q16552); experiment: BLI, biotinylated IL-17A immobilized, monovalent VHH as analyte
[4] = molecular target: T1, human IL-17F with C-terminal Avi-tag, biotinylated, immobilized on BLI sensors (human) (UniProt Q96PD4); experiment: BLI, biotinylated IL-17F immobilized, monovalent VHH as analyte
T1 sequence (chain, biotin on the C-terminal Avi-tag (BirA)): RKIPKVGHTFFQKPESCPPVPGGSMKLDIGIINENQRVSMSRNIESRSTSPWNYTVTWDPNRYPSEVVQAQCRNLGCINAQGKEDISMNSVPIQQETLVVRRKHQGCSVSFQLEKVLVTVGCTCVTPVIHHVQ

[5] = molecular target: T2, human IL-17F homodimer, bacterially expressed construct (residues 39-163 with GSEGE linker) (human) (UniProt Q96PD4); experiment: co-expression in E. coli, co-purification, crystallization
T2 sequence: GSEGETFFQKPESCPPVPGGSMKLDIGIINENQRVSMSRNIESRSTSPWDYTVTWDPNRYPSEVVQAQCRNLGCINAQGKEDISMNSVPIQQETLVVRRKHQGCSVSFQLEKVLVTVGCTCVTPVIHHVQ

[6] = molecular target: T1, human IL-17F with C-terminal Avi-tag, biotinylated, immobilized on BLI sensors (human); experiment: monomeric VHH on immobilized IL-17F homodimer
[7] = molecular target: human IL-17A with C-terminal Avi-tag, biotinylated, immobilized on BLI sensors (human) (UniProt Q16552); experiment: monomeric VHH on immobilized IL-17A homodimer
[8] = molecular target: human IL-17A with C-terminal Avi-tag, biotinylated, immobilized on BLI sensors (human) (UniProt Q16552); experiment: BLI
[9] = molecular target: T1, human IL-17F with C-terminal Avi-tag, biotinylated, immobilized on BLI sensors (human); experiment: BLI

B1: Bm42A03 (VHH)
VHH: QVQLVESGGGLVQPGGSLRLSCVASGFTFSSFAMSWYRQDPGKERKLVAAITNDGGTTFYSDLVKGRFTISRDNTKNTVYLQMNNVKPDDAAVYYCMAVRGLYGSNWYDYPFELWGQGTQVTVSS
binding [1]: binds | binding [2]: binds

B2: Bm44G10 (VHH)
VHH: B1 VHH with K43R
binding [1]: binds | binding [2]: binds

B3: Bm42B11 (VHH)
VHH: QVQLVESGGDLVQAGGSLRLSCSVSGLRVSSYAMGWFRQAPGKEREFVAAISWVGGDTRYADSVKGRFTMSRDNAKKQVYLEMNSLKPEDTAVYYCNDMPYGMETRMDDYASWGQGTQVTVSS
binding [1]: binds | binding [2]: binds

B6: Bm17B02 (VHH)
VHH: QVQLVESGGGLVNTGGSLRLSCVVSGHTSEISAMGWYRQAPGKQRELVALITSRSGDTHYSDSVKGRFSISRDNAKNTMYLQMNSLNPDDTAVYYCVHNEPGHLYMAQGTQVTVSS
binding [5]: binds

B8: Bm43B02 (VHH)
VHH: QVQLVESGGGLVQAGGSLNLSCVISRRTPSGYAMGWFRQASGKEREFVAAISWIGGGAVYADSVKGRFTMSRDNAKNTVYLQMNSLKPEDTAVYYCNDMPYGLDTTMDDYDYWGQGTLVTVSS
binding [1]: binds | binding [2]: binds | binding [6]: binds | binding [7]: binds | binding [8]: binds | binding [9]: binds

B9: Bm44B11 (VHH)
VHH: B8 VHH with L118Q
binding [1]: binds | binding [2]: binds

B11: Bm44C09 (VHH)
VHH: QVQLVESGGGLVQAGGSLRLSCAASGLAVSSYAMGWFRQAPGKEREFVAAISWISGGTKYADSVKDRFTMSRDNAKKQVYLEMNSLKPEDTAVYYCNDMPYGLDTRMDDYKYWGQGIQVTVSS
binding [1]: binds | binding [2]: binds

The remaining lines, values ahead:

binding [3]: binds | binding [1]: binds | binding [2]: binds | binding [4]: binds
B4: Re42B04a (VHH)
VHH: QVQLVESGGGLVQVGGSLRLSCEVSGLPVSSYAMGWFRQAPEKEREFVAAISWIGGDSRYAHFVKGRFTISRDNAKNTVHLQMDSLKPEDTAVYYCNDMPYGLDTRMDEYEYWGQGTQVTVSS

binding [3]: binds
B5: VHH662 (VHH)
VHH: EVQLVESGGGSVQAGDSLRLSCAASGRANSINWFGWFRQTPGKEREFVAGIRWSDAYTEYANSVKGRFTISRDNAKNTVDLQMDSLKPEDTAVYYCVLDLSTVRYWGQGTQVTVSS

binding [3]: binds | binding [4]: binds
B7: Re42F08 (VHH)
VHH: B6 VHH with N13K, T14A

binding [3]: binds
B10: VHH664 (VHH)
VHH: EVQLVESGGGLVQAGGSLRLSCAASGRTYDAMGWLRQAPGKEREFVAAISGSGDDTYYADSVKGRFTISKDNAGITMYLQMNSLKPEDTAVYYCATRRGLYYVWDSNDYENWGQGTQVTVSS

binding [5]: binds
B12: Re42H11 (VHH)
VHH: B11 VHH with A28T, V29A, D66G, D109E, K111A, I117T
